Experimental data taken from patent publication US20020115167A1.
These are yes or no findings as the source states them, for the method shown. In cells and extracts the contact can be indirect. Some entries that bind do so weakly or less than the wild type.

Amino acid sequences for entries named in this document (tags omitted). Residues count along the entry.
UniProt P51140, residues 167-394: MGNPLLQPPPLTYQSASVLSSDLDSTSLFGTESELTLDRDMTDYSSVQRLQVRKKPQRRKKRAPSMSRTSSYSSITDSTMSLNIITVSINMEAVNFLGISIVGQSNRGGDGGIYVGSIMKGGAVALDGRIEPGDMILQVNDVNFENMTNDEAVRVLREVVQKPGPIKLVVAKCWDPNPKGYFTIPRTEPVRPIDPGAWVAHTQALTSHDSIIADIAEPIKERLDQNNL

Key:
[1] = biological target: Drosophila PAR-1 (dPAR-1), the Dishevelled-associated kinase (Drosophila); assay: GST-fusion pull-down from Drosophila embryo lysates, in vitro kinase assay
[2] = biological target: Drosophila PAR-1 (dPAR-1), the Dishevelled-associated kinase (Drosophila); assay: GST-fusion pull-down from staged Drosophila embryo lysates, in vitro kinase assay

GST-fusion protein containing the middle (DM) domain of Dsh (from UniProt P51140 167-394)
binding [1]: binds
binding [2]: binds
